{"source": "paper PMC10222431", "key": {"[1]": {"test_system": "MBP-SmSoxS1 (Schistosoma mansoni)", "test": "EMSA", "conditions": "poly dI-dC 0.75 ug, LightShift EMSA kit, 200 fmol biotin probe, 12.4 ug MBP-SmSoxS1, 0.75 ug poly dI-dC, 30 min, 5% native PAGE 0.5x TBE, pH and temperature not stated, recombinant protein, protein details: N-terminal MBP (pMAL-c5X), label: biotin (unlabeled version as competitor)"}, "[2]": {"test_system": "MBP-SmSoxS1 (Schistosoma mansoni)", "test": "competition with a labelled probe", "conditions": "nonspecific control sequence, competitor 1000x (200 pmol vs 200 fmol probe); LightShift EMSA kit, 200 fmol biotin probe, 12.4 ug MBP-SmSoxS1, 0.75 ug poly dI-dC, 30 min; 5% native PAGE 0.5x TBE; pH and temperature not stated; recombinant protein; protein details: N-terminal MBP (pMAL-c5X)"}}, "note": "The exact form of at least one protein or probe is not confirmed. For part of these data: Negatives hold for the conditions tested.", "data": [{"sequence": "TATCAATTTGACGTTACATTGATGGTTTATTGTGATGGG (double strand) [SmSOXS1 upstream Sox element probe]", "values": [{"measurement": "binding result", "setting": "[1]; stronger than SmFGF4 probe", "result": "binds"}]}, {"sequence": "GCCGATCCGCATTTTGTGACATCCTTCAGC (double strand) [NDT80 element (AT014)]", "values": [{"measurement": "binding result", "setting": "[2]", "result": "no binding"}]}, {"sequence": "AGCTTCTCGAGCTGCTCTTTGTTTGGTTACTCTAAATAC (double strand) [SmFGF4 upstream Sox element probe]", "values": [{"measurement": "binding result", "setting": "[1]; weaker than SmSOXS1 probe but effective", "result": "binds"}]}]}
